PubChem BioAssay AID1259425 – University of Nebraska Medical Center – 2018
Shown is one part, drawn at random, of about 14,000 reagents tested. Not all columns of the deposit are shown. No sequences are given here. Not given: the time to read-out.

Screen: 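Find knockdowns that reproduce the gene expression pattern seen when KSR1 is lost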 (primary screen)
Cells: HCT116 human colon cancer cells
Reagents: siRNA pool against human genes, 50 nM siRNA
Measurement: 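mRNA of six signature genes measured together by branched-DNA assay after 50 nM siRNA pool, blank removed, divided by geometric mean of two housekeeping genes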
Direction: BNIP3L mRNA: higher = more BNIP3L transcript after knockdown; NDRG1 mRNA: higher = more NDRG1 transcript after knockdown

FBXL2 (F-box and leucine rich repeat protein 2)
- BNIP3L mRNA, set 1: 0.0867
- NDRG1 mRNA, set 1: 0.146

ALG6 (ALG6 alpha-1,3-glucosyltransferase)
- BNIP3L mRNA, set 1: 0.096
- NDRG1 mRNA, set 1: 0.173

SLC12A2
- BNIP3L mRNA, set 1: 0.0405
- NDRG1 mRNA, set 1: 0.0914

RNFT1 (ring finger protein, transmembrane 1)
- BNIP3L mRNA, set 1: 0.119
- NDRG1 mRNA, set 1: 0.177

FGFR3 (fibroblast growth factor receptor 3)
- BNIP3L mRNA, set 1: 0.125
- NDRG1 mRNA, set 1: 0.0861

NDP (norrin cystine knot growth factor NDP)
- BNIP3L mRNA, set 1: 0.146
- NDRG1 mRNA, set 1: 0.322

H2BC4 (H2B clustered histone 4)
- BNIP3L mRNA, set 1: 0.057
- NDRG1 mRNA, set 1: 0.218

MYB (MYB proto-oncogene, transcription factor)
- BNIP3L mRNA, set 1: 0.189
- NDRG1 mRNA, set 1: 0.21

CD80 (CD80 molecule)
- BNIP3L mRNA, set 1: 0.308
- NDRG1 mRNA, set 1: 0.622

FGR (FGR proto-oncogene, Src family tyrosine kinase)
- BNIP3L mRNA, set 1: 0.215
- NDRG1 mRNA, set 1: 0.23

DNAJC28 (DnaJ heat shock protein family (Hsp40) member C28)
- BNIP3L mRNA, set 1: 0.075
- NDRG1 mRNA, set 1: 0.128

HIRA (histone cell cycle regulator)
- BNIP3L mRNA, set 1: 0.108
- NDRG1 mRNA, set 1: 0.369

SMYD3 (SET and MYND domain containing 3)
- BNIP3L mRNA, set 1: 0.0857
- NDRG1 mRNA, set 1: 0.143

RAB11FIP3 (RAB11 family interacting protein 3)
- BNIP3L mRNA, set 1: 0.0913
- NDRG1 mRNA, set 1: 0.387

ATCAY (ATCAY kinesin light chain interacting caytaxin)
- BNIP3L mRNA, set 1: 0.12
- NDRG1 mRNA, set 1: 0.36

PON2 (paraoxonase 2)
- BNIP3L mRNA, set 1: 0.0592
- NDRG1 mRNA, set 1: 0.128

STRADB (STE20 related adaptor beta)
- BNIP3L mRNA, set 1: 0.105
- NDRG1 mRNA, set 1: 0.13

TBX20 (T-box transcription factor 20)
- BNIP3L mRNA, set 1: 0.0823
- NDRG1 mRNA, set 1: 0.194

HESX1 (HESX homeobox 1)
- BNIP3L mRNA, set 1: 0.093
- NDRG1 mRNA, set 1: 0.203

E2F8 (E2F transcription factor 8)
- BNIP3L mRNA, set 1: 0.197
- NDRG1 mRNA, set 1: 0.756

DLEU1 (deleted in lymphocytic leukemia 1)
- BNIP3L mRNA, set 1: 0.186
- NDRG1 mRNA, set 1: 0.484

MYLK3 (myosin light chain kinase 3)
- BNIP3L mRNA, set 1: 0.131
- NDRG1 mRNA, set 1: 0.861

PROKR2 (prokineticin receptor 2)
- BNIP3L mRNA, set 1: 0.403
- NDRG1 mRNA, set 1: 0.383

AKAP8 (A-kinase anchoring protein 8)
- BNIP3L mRNA, set 1: 0.113
- NDRG1 mRNA, set 1: 0.57

ZNF462 (zinc finger protein 462)
- BNIP3L mRNA, set 1: 0.39
- NDRG1 mRNA, set 1: 0.115

PDE3B (phosphodiesterase 3B)
- BNIP3L mRNA, set 1: 0.102
- NDRG1 mRNA, set 1: 0.0633

KLK7 (kallikrein related peptidase 7)
- BNIP3L mRNA, set 1: 0.0781
- NDRG1 mRNA, set 1: 0.115

SYT17 (synaptotagmin 17)
- BNIP3L mRNA, set 1: 0.0978
- NDRG1 mRNA, set 1: 0.178
